Test results taken from patent US20180215787A1, “Chromogenic And Fluorogenic Peptide Substrates For The Detection Of Serine Protease Activity” (RUPRECHT-KARLS-UNIVERSITÄT HEIDELBERG, priority 2015, published 2018).
The name of at least one read-out is uncertain. Some entries share one result that the patent states for a list of compounds.

Amino acid sequences for entries named in this document (tags omitted). Residues count along the entry.
UniProt P00743, 41-180 partner limits assumed: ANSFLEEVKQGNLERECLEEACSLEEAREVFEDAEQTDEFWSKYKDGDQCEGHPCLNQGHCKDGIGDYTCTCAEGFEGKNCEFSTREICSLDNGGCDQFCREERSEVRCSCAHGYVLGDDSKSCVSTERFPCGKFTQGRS
UniProt P00743, 234-492 limits assumed: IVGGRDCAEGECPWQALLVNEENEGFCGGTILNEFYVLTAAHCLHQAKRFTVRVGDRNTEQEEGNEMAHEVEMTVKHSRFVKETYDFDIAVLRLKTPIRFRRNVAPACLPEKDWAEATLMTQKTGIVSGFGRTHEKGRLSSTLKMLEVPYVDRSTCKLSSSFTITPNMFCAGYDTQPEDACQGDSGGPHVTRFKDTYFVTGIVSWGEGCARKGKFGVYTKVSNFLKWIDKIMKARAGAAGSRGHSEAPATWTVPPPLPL

Target: factor Xa (Bos taurus, UniProt P00743)
Assay: Kinetic measurements (Michaelis-Menten) of factor Xa substrates
Format: biochemical
Settings: for increase in fluorescence upon reaction with the enzyme: factor Xa substrates
Protocol: Commercial substrate 1a, depicted in FIG. 2, was used as reference in the kinetic measurements. The kinetic values KM, kcat and kcat/KM were established for the fluorogenic compound 1 using Human Thrombin. In order to compare the results of 1 and 1a, the absorption of the released chromophores was measured during the enzymatic reaction (570 nm for resorufin and 380 nm for p-nitroaniline).
The same parameters were also determined for 1 by measuring the emission of resorufin at 583 nm and similar values to the ones obtained from absorption were found (FIG. 5A).
A similar conjugate, with the same peptide sequence, but having p-nitroanilide as reporter, has a much higher KM (40 μM) and the enzyme has poorer catalytic efficiency for this substrate (2.7×10^6 M^−1 s^−1). Thus, compound 2 of the present invention performs better than the best factor Xa substrate so far reported.
The kinetic parameters were determined as described for the other substrates (cf. Example 4). The results of Michaelis-Menten kinetic is depicted in FIG. 13.

Row | Substance | kcat/KM (factor Xa substrate, Michaelis-Menten kinetic) [M⁻¹ s⁻¹] | increase in fluorescence upon reaction with the enzyme
1 | Cbz-D-Arg-Gly-Arg-PABA-Res [Compound 2a] | 890000 | more than 300 fold
2 | BzIs-D-Arg-Gly-Arg-PABA-Res [Compound 2] |  | more than 300 fold
